From PubChem BioAssay AID1508600 (Functional Genomics Laboratory (NCATS/FGL), 2020) come the findings set out here.

The whole screen tested about 53,000 sequences, of which about 3,700 (7%) were called active.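 Rule for the calls: active = gene knockdowns whose robust z-score for IL-1 alpha signal is at least 2 or at most -2, so actives lie on both sides; inactive = the rest.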 The list shows a part of the results.

This experiment can be described thus: Components of the Cytosolic LPS Sensing Pathway: Gene Identification via Genome-wide siRNA Screen.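 Note: robust z of the log signal after scaling to non-targeting control siRNA wells of the plate.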 The following applies: RAW264.7 macrophages, IL-1a HTRF, actives lie on both sides, screened at 100 nM (by protocol), cells primed 5 h with Pam3CSK4 first. In short, it runs like this: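 Using IL-1a HTRF as read-out, the screen measured release from RAW264.7 cells after 48h siRNA knockdown (100 nM), 5 h Pam3CSK4 priming and 24 h cytosolic LipidA. Values were expressed relative to negative-control wells as robust z-scores.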
In the case of GGAAGAAUCAAAAACCUUCTT against Ddit3, the z-score is inactive: 1.16.

In the case of GGACGUAACAAAAUGUUCUTT against P2ry12, the z-score is inactive: 0.578. Turning to CCCUUGUCCAGUGUGAGUUTT against Tmem184b, the z-score is inactive: 1.07. Regarding GGCUAAAGAACAUGAUACCTT against Sema4a, the z-score was inactive: 1.19. As to GGAAGAAGUCAGAUGUGGATT against Radil, the z-score was inactive: -0.315. In the case of GGAAUCAACUUGGUGGCUCTT against Rxrg, the z-score was inactive: -0.0611.

With GGGCUGCUAUUUUGAUGGUTT against Chrd, the z-score is inactive: 0.704. In the case of GGAUGUCUCAAAGUAAGAATT against Cd55b it was inactive: -0.124. Take CCUAUGUCAUUUGUAAUGATT against Tceanc: the z-score was inactive: -1.26. Take ACUUCCUGACUGAGAGACATT against Olfr485: the z-score is inactive: 0.981. Consider CCCGAUUAUUCAUCUGCACTT against Kbtbd7, for which the z-score is inactive: 0.947.

For “GGUUAUCCCAGCUACCACATT against 9630013D21Rik”, the z-score was inactive: -0.761.

Consider AAAAGUUAAUCAUCCGGCATT against Olfr732, for which the z-score is inactive: -0.099. Consider UUCCAUUUUUUGGAGACCATT against Ugt3a1, for which the z-score was inactive: -0.153. For CGAAUUCUCUACCAGUUUUTT against Psd4, the z-score is inactive: 0.41. Take GGAAGAAAAAAAAUCUCCATT against Frmd3: the z-score is inactive: 0.577.

Take GCCAACAAUUUGAAGAACGTT against Spats1: the z-score is inactive: 1.1.

On to GGUACGAUGAACUCACAGATT against Ints1, for which the z-score was inactive: 0.393. As to GCUUUACGCAUCCUACGUGTT against Ftmt, the z-score was inactive: -1.54. In the case of GGAAAGAUUCAAAGAACCUTT against Rpia it was inactive: 1.45.

In the case of GCGGAAAGGCCAAACGAUUTT against Inhbb, the z-score was inactive: -0.734. For the sequence GGAGGUCUGGAUUAACUGUTT against Cd163l1, the z-score is active: 2.2. Regarding CCAUCUGAUUUCUUUCCAGTT against Gm5154, the z-score was inactive: -0.783.

On to GGAGAUCAUUAAAAAGCUGTT against Kat2b, for which the z-score was inactive: 0.229. For the sequence CCUCUUAAACAUGUCCUAGTT against Atp6v0a2, the z-score was inactive: -1.04. In the case of GCAUAAUGGAUGGAAAGUCTT against Tasp1 it was inactive: 1.1.

As for GGACAAUGAGCUCUCCUUCTT against Abi3, the z-score is inactive: 1.21. In the case of GGGCUGACUAUUAUUUCAGTT against Cysltr2 it was inactive: -0.107. On to GGGUCAAACGACUUAGAAATT against Col5a2, for which the z-score is inactive: -0.775. As for CCUUCUGUAUAGGUUCUGGTT against Slc41a3, the z-score is inactive: 0.716. In the case of CGAUAUUGAUGAUCUAGUCTT against Kdm4a it was inactive: 0.576; in that of AUGGAAAAAGUGCACAAUCTT against Olfr1061, active: 2.34; in that of “GGUCAAGUUCGCCAUUAAATT against 2310022A10Rik”, inactive: -0.283.

For GGAACCGUAGCUUGUCUGCTT against Rgp1, the z-score is inactive: 0.907.

Regarding GGGAAUGUAGACAUGGAAUTT against Tas1r3, the z-score is inactive: 1.15. GGAUGUUGUAGCAGCUGCGTT against Olfr353: the z-score was inactive: -0.204. Turning to GCCUUAACCACAAUUAAAATT against Etfrf1, the z-score is inactive: -0.578. Regarding GGUUAACUCCUUUUCUAGATT against Ints13, the z-score is inactive: -0.52. For CGAGCAAGCUUCUACAUACTT against AI182371, the z-score is inactive: 0.438.

As to GGUAAUUGAGUUUGACGAUTT against Ptprf, the z-score was inactive: 0.585. Regarding CCUCUAGACCGAAUGAAAATT against Zfyve16, the z-score was inactive: 0.472. On to GGAUACAAUCCGAAUGAUGTT against Lyrm2, for which the z-score is inactive: 0.484.

As to GGAUUUGGCAAAAUCUUCCTT against Rnpc3, the z-score is inactive: 0.481. With GGAGGGCAAGAUAGAUGAGTT against Fas, the z-score is inactive: -0.0778. As to GGAUAGACUUGAUUCUUGGTT against Emid1, the z-score is inactive: 0.491. As to CGUGAAGUUGCAUGUAUUUTT against Rabepk, the z-score was inactive: 0.0478.

Turning to GGGAAAGGGUUUUUUAUUCTT against Slc1a1, the z-score was inactive: -0.177. With GGAGAGAGUUGUUCAGUUATT against Olfr619, the z-score was inactive: -0.31. GGUAUUAAGUUCCUGUAAUTT against Ahcyl2: the z-score is inactive: -1.62.

As to GGGUAUUCCUUCCAACACCTT against Lrrc4, the z-score was active: -2.14.

In the case of CCCACCACAAGCUAAUACATT against Ubac1, the z-score is inactive: -0.0826.

In the case of GGAUGAUAUGCUGUUAGUGTT against Il17rc, the z-score was inactive: -1.59. In the case of GGAUAAGCAUGAUGACAGUTT against Wbp11 it was inactive: -1.74; in that of GGUCUCCCUUCAGUAUGAGTT against Cela3b, inactive: -0.602; in that of “GGGCUACUAUUCAUUGAUCTT against 4930550L24Rik”, inactive: 1.94. In the case of GGAUCAGAUUCUGAAGAGATT against Vcl, the z-score is inactive: 0.0133. Take GGACUUCUUAUGGAAAAGATT against Xlr5c: the z-score is inactive: -0.942. As for GGGAGCUAAUGAGCAAGGATT against Galk1, the z-score was active: 2.5. For the sequence GCACCAUUCUAGGAGUCAUTT against Lonp2, the z-score was inactive: -0.504. For GGACCCUUAUGACCCUCAUTT against Irf3, the z-score is inactive: -0.49. As for GCUAAGAUGAUGUCCUUGUTT against Ifi27, the z-score is inactive: -0.655.

With GGAGCACUUAGAAAUGUCCTT against Olfr342, the z-score was inactive: -0.174. Consider GCCUUAGGAUGCAUCUUGUTT against Smarcad1, for which the z-score is inactive: 0.229. On to GGGAAAGACUCAAGGUCCUTT against Olfr586, for which the z-score was inactive: 0.774. GCUGGCGGAGCAAACUCAATT against Foxd3: the z-score is inactive: 0.756. In the case of GGGAAUUUAUAGCUUCAGCTT against Cbln2, the z-score was inactive: -0.385.

Regarding GGCUCAAGAAAUUCUGGACTT against Noxo1, the z-score is inactive: 1.02.

For GCUCAGAAUGCAGGUCGUATT against Scgb2b2, the z-score was inactive: -0.276. For “GGCUUCUUCACUGAAAUUCTT against 1700074P13Rik”, the z-score was inactive: -1.1. Consider GGAAAGUGUUCCGAAUAUUTT against Zc3hc1, for which the z-score is inactive: -0.12. Consider GGAAGAUAACUCCUAUGUCTT against Acad12, for which the z-score was inactive: -1.72. Take GGAAACCUGUGUAUGAUUGTT against Olfr1022: the z-score is inactive: -1.63. Turning to GGGUUUGAGAAUUUGAAGCTT against Dscaml1, the z-score was inactive: -0.539. In the case of GGGUCAGAUUGCUAUCCUCTT against Mfsd5 it was inactive: 0.256; in that of GGAUUCUGAAAUCAGUGCUTT against Capn8, inactive: 1.52; in that of GGACAUUUUUCAUUUGUGATT against Zfhx4, inactive: 1.28. Turning to GCUGACUAAGGCUUGUAAUTT against Hrnr, the z-score was inactive: -0.194. Take GGCAAUUACCCACCCUGUUTT against Mfsd6: the z-score is active: -2.57. Turning to GCUUCGCUUUUAGGUAUAUTT against Rpl27, the z-score is inactive: 0.466.

Consider GGCCCUCACAAUGAAUAUGTT against Efs, for which the z-score is inactive: -0.115.

As to GCCUCUCUGGUGAACUUAGTT against Ccar1, the z-score is inactive: 0.0406. For the sequence GGUGAAGUCUCCAAAGAGUTT against Ms4a4d, the z-score was inactive: 0.539. Regarding GGAUUGUGUUUGAGUCUCATT against Phyhd1, the z-score is inactive: -0.934.

As to GGAAACAGCCCACUGGAAATT against Ndufs2, the z-score is inactive: 1.07. GGUGUUAGCUUCUCAAAAUTT against Cltrn: the z-score was inactive: 0.497. Regarding GCUAGAAAGAGUUAAUCUATT against Wdr11, the z-score is inactive: -0.616. Consider CGAGCUAUACGGAAAAAAATT against Efcab12, for which the z-score is inactive: -1.03. In the case of GGAAUCAUCUUCAUUGACCTT against Agpat1 it was inactive: 0.0827; in that of GGAAAAAUUGAAGUUGAUCTT against Iqcj, inactive: -1.35. As to GGAACUCCUGACUCUCAGATT against Htra2, the z-score was inactive: -1.19.

CCGUCUUUGUGCUAUGCUGTT against Sstr4: the z-score is inactive: 1.56. With CCCUCUAAAGCAUGAGUGUTT against Tspan32, the z-score was inactive: 0.624. Turning to GGAACAAAGUGUCAGAGGATT against Hcls1, the z-score was inactive: -0.198. For GGCAGAUACUUCUCUGGAGTT against Sdc4, the z-score was inactive: -0.498.

With GGAAGGACUCCUGUACAUCTT against Cyp4f18, the z-score was inactive: -0.398. For the sequence GGUCCAAGCCUUAAUAUAUTT against Aadac, the z-score is inactive: 0.486. On to CGACAUGGAACACAAGACCTT against Map3k11, for which the z-score was inactive: 0.289.

For GGUGUAUGUGCUGAAGCGATT against Ctdspl, the z-score is inactive: -0.526.

Regarding GGAACUUCAGUGUUGCCUCTT against Olfr257, the z-score was inactive: 0.0752. In the case of CCUUCCGCCUAUCCUAUUGTT against Olfr52, the z-score was inactive: 0.791. In the case of GGUGACAUCUUCAUUGGCCTT against Actr1a it was inactive: 1.13. Turning to GGGAAGAGAAAACUGGACUTT against Xrcc1, the z-score is active: 3.01. Consider GCUGCCGAUUGAUAGCUUCTT against Pik3ca, for which the z-score is inactive: 0.248. For GCCCAAUAAAAUUGAAGGGTT against Pmis2, the z-score was inactive: -0.163. With GGUGUUUGAUGUAACUAAATT against Dgke, the z-score is inactive: -0.424. For “GAGUGGUUUCUAAUUCGUATT against A830031A19Rik”, the z-score is active: 2.56.
